Test results as given in doi:10.1101/2020.09.07.286633.

The chains behind the UniProt entries cited, without tags or fusion partners.
UniProt Q9GZV5: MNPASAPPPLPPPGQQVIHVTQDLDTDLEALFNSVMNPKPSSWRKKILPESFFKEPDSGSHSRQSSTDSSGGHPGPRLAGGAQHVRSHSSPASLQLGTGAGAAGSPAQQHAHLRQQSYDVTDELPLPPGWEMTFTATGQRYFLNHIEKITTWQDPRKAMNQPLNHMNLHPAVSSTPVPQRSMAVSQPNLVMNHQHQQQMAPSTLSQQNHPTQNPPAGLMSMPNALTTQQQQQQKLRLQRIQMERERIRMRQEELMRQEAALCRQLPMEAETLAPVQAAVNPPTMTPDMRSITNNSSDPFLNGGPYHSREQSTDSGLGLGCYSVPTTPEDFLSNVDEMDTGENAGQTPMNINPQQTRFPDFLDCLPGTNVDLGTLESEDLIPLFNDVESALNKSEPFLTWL
UniProt Q8NI35: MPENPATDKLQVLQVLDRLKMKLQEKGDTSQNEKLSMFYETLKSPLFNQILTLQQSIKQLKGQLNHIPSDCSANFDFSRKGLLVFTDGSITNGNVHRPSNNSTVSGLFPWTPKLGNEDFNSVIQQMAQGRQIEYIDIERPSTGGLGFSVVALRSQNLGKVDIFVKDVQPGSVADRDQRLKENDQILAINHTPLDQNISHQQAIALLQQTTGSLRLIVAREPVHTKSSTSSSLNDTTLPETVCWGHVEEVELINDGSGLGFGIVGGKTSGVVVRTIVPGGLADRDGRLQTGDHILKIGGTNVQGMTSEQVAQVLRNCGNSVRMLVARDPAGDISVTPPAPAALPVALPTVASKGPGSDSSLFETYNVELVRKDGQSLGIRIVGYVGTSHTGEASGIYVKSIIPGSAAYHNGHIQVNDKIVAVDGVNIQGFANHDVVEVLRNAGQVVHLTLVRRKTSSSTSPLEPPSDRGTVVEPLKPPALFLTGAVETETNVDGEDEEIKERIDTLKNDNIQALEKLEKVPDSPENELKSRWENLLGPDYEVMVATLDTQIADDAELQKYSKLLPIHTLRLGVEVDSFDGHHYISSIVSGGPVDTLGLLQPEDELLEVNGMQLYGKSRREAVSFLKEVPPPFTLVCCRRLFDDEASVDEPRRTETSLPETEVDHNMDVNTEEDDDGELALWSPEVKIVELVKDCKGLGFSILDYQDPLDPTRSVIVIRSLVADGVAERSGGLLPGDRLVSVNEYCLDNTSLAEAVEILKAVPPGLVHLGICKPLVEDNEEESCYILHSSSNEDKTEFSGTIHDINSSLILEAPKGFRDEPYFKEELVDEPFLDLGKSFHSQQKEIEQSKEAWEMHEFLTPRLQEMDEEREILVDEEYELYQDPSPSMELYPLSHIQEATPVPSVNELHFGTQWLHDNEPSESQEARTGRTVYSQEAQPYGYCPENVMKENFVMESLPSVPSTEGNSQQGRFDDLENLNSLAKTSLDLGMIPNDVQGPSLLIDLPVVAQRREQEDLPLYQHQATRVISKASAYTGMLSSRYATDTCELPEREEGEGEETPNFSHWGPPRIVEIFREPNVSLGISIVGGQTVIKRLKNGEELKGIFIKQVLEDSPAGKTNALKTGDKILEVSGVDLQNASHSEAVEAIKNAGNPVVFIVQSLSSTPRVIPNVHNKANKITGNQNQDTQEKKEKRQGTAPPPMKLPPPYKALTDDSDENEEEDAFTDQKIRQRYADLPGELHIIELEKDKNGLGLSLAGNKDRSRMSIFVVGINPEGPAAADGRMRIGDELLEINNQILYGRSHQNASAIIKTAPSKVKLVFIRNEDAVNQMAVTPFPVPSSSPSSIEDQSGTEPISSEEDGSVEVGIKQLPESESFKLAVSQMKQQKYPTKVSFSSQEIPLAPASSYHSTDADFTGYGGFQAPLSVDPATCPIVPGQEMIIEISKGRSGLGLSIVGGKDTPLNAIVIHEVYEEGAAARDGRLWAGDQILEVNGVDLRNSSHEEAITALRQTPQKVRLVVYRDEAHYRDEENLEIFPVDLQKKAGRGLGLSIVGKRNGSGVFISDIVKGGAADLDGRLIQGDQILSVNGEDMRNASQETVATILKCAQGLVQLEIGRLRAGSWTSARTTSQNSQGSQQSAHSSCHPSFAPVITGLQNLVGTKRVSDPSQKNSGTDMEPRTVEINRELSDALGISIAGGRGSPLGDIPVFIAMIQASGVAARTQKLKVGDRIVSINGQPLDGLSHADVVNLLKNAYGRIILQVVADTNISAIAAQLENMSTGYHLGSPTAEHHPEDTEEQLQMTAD

Target: BirA*-TAZ (full-length) (UniProt Q9GZV5)
Experiment: proximity labelling

binding: binds
Substance: PATJ (from UniProt Q8NI35 1-1801)

These are yes or no findings as the source states them, for the method shown. In cells and extracts the contact can be indirect. Here binding means that the protein was enriched with, or labelled near, the bait; the list need not be complete.
